Experimental data reported in PMC4669755.
Results are given in words; binding and its absence hold for the method and conditions named. Binding seen in cells or lysates may run through a third protein. Some entries that bind do so weakly or less than the wild type.

Protein sequences, listed by entry. Tags and fused reporters are not part of them. Residues count along the entry.
UniProt P19022, residues 160-906: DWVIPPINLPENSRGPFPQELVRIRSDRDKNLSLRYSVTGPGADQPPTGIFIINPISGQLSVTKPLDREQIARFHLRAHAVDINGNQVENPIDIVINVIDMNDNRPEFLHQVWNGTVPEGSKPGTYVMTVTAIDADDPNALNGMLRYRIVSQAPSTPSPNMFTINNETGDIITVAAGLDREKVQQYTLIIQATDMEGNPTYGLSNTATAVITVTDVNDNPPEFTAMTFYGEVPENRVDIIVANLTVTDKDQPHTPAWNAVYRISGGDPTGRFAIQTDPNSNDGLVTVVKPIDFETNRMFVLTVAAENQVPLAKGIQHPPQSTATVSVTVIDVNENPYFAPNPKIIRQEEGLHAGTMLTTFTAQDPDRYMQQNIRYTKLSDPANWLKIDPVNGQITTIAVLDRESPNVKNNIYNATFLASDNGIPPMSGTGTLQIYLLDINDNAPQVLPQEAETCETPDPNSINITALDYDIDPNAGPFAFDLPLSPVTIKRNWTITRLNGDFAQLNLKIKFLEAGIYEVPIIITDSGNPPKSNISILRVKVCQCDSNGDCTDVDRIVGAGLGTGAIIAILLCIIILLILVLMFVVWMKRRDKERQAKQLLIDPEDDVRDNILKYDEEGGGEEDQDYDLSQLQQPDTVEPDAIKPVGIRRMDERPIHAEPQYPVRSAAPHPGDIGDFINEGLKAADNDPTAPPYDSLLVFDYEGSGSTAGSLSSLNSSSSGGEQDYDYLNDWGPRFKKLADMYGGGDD
UniProt P35222: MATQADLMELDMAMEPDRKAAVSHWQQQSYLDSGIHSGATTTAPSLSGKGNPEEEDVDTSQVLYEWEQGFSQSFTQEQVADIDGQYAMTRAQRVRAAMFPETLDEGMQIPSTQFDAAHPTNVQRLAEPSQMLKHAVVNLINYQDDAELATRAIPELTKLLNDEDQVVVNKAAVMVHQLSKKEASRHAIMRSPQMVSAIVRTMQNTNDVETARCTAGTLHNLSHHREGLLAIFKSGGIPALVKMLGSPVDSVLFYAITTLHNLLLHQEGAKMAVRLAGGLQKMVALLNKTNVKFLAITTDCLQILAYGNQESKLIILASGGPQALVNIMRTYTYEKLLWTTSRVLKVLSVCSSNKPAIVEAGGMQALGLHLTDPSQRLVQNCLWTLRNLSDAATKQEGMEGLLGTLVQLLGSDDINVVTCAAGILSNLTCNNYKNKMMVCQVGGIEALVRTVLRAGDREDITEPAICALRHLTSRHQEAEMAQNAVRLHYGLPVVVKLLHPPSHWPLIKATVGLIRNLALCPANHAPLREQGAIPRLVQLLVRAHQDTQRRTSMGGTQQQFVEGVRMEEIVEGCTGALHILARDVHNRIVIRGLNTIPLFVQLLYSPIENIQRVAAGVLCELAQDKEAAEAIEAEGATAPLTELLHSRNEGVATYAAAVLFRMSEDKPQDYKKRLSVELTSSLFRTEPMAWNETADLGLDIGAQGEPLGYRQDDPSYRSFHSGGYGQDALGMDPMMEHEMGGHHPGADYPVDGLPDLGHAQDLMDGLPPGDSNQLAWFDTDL

Biological target: N-cadherin (human (endogenous in sNF96.2)) (UniProt P19022)
Assay: co-IP; lysates of sNF96.2 cells incubated 30 min with conditioned media (F+M control or FcoM; also from fibroblasts transfected with Si-Ctr or Si-SLIT2 siRNA); immunoprecipitation with N-cadherin antibody and agarose beads at 4 °C, immunoblot for β-catenin

β-catenin (from UniProt P35222 1-781)
binding: binds
